A short description of the assay: qHTS Assay for Lipid Storage Modulators in Drosophila S3 Cells.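 For cell number change: cells counted by Cell Tracker Red CMTPX staining in the red channel.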 Conditions: BODIPY lipid droplet fluorescence, 18-24 h; for cell number change: measured here: cell count max response, cells fed with added oleic acid. The method in brief: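 Drosophila S3 cells loaded with oleic acid (400 uM, as added) and compounds at several concentrations; lipid droplets imaged by 488-nm laser-scanning cytometry, 500–530 nm intensity and object ratio to cell channel. Percent activity normalized to 20 uM Triacsin C.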
In general terms: qHTS replaces the single test concentration by a dilution series.

[1] abbreviates: measured here: lipid fluorescence (Fed channel) AC50, cells fed with added oleic acid.
[2] abbreviates: measured here: cell number channel AC50, cells fed with added oleic acid.

Results on 58 molecules are retold here after PubChem BioAssay AID2685 (National Center for Advancing Translational Sciences (NCATS), 2010).

Some of the results follow. Shown are side measurements of this screen, not its main read-out; they come without a call. Compounds called inactive in the main read-out are mostly missing here. Potencies come from curve fits of mixed quality, noted in brackets.

A word on the AC50: it is the concentration giving half of the maximal activity seen. Lower therefore signals activity at low concentration.

For the molecule `COc1ccccc1NC(=O)Nc1ccc(C(N)=O)cc1`, under setting [1], the AC50 was 29.1 µM [falling, single point].

`COc1ccc(S(=O)(=O)NCc2ccccn2)cc1Br`: the AC50 under setting [1] is 6.51 µM [rising, single point].

For `Cc1ccc(S(=O)(=O)N2CCN(C(=O)Cc3ccc4c(c3)OCCO4)CC2)cc1C`, under setting [2], the AC50 was 0.731 µM [rising, full curve].

Turning to `O=C(c1ccco1)N1CCN(C(c2cccs2)c2sc3ncnn3c2O)CC1` (stereo not given), the cell number change is 42.7%. For the same molecule, the AC50 under setting [2] was 23.1 µM [rising, single point]. Also, under setting [1], the AC50 is 29.1 µM [rising, single point].

For the molecule `O=C(N/N=C/c1ccc([N+](=O)[O-])s1)c1ccccc1Br`, the cell number change is -14.6%. The AC50 under setting [1] was 29.1 µM [falling, single point].

Regarding `O=C(c1cccc(C(F)(F)F)c1)c1c[nH]c(C(=O)NCCCN2CCOCC2)c1`, the cell number change stood at 76.1%. For the same molecule, the AC50 under setting [2] was 14.6 µM [rising, partial curve, poor fit]. Under setting [1], the AC50 is 29.1 µM [rising, partial curve, poor fit].

For `Cc1ccc(NC(=O)COC(=O)c2cc(=O)c3ccccc3o2)cc1F`, the cell number change is -2.73%. In addition, the AC50 under setting [1] was 29.1 µM [rising, single point].

`O=C(Nc1ccc(N2CCCC2)c(Cl)c1)c1cccs1`: the AC50 is, setting by setting: under setting [2], 2.59 µM [falling, partial curve, poor fit]; under setting [1], 1.64 µM [falling, partial curve, poor fit].

Take `Cc1ccc(OCCNC(=O)C2CC(=O)N(Cc3ccccc3)C2)cc1` (stereo not given): the cell number change came to 3.61%. Further, under setting [1], the AC50 was 2.31 µM [falling, partial curve].

In the case of `CNCCOc1ccccc1C(C)(C)C`, the cell number change came out at 11.1%.

In the case of `COCCN1Cc2cccc(C(=O)Nc3cccc(-c4nc5ccccc5[nH]4)c3)c2C1=O`, the cell number change was -11.8%.

For `Cc1ccccc1Nc1nc(N)nc(CSc2nc3ccccc3c(=O)n2C)n1`, the cell number change is -1.39%. Further, the AC50 under setting [1] is 8.2 µM [rising, partial curve].

As to `CC1(C)CC2CC(C)(CN2C(=O)c2ccc([N+](=O)[O-])cc2)C1` (stereo not given), the cell number change is -10.4%. In addition, the AC50 under setting [1] was 29.1 µM [falling, single point].

`NC(=S)c1ccc(C(N)=S)o1`: the cell number change is -8.82%. The AC50 under setting [2] is 0.731 µM [falling, full curve]. Further, the AC50 under setting [1] is 3.26 µM [falling, full curve].

For `O=C(OCc1nnc(-c2ccc(Br)cc2)o1)c1ccco1`, the cell number change is -4.42%. Under setting [1], the AC50 is 29.1 µM [rising, single point].

As to `CC1(C)CCC[C@@]2(C)CC=C(C(=O)O)[C@@H]3C[C@]312`, the cell number change is -30%. Besides, under setting [1], the AC50 was 0.517 µM [falling, full curve, poor fit].

Take `COc1ccccc1C1/C(=C(/O)c2ccccc2)C(=O)C(=O)N1CCO` (stereo not given): the cell number change is -3.27%.

As to `CCCCN(C(=O)C1CCC1)c1c(N)n(Cc2ccccc2)c(=O)[nH]c1=O`, the cell number change was found to be 9.19%. Moreover, the AC50 under setting [1] is 0.206 µM [rising, full curve, poor fit].

`COc1ccc(C(=O)N2CCCC(N3CCN(c4ccccc4OC)CC3)C2)c(OC)n1` (stereo not given): the cell number change is -26.3%. Under setting [1], the AC50 was 29.1 µM [falling, single point].

For the molecule `CCOC(=O)/C=C/S(=O)(=O)c1ccc(NC(C)=O)cc1`, the cell number change was -84.9%. For the same molecule, under setting [2], the AC50 was 23.1 µM [falling, single point]. Moreover, the AC50 under setting [1] was 23.1 µM [falling, partial curve].

Take `CCN1CCN(S(=O)(=O)c2ccc(S(=O)(=O)NC3CC3)cc2)CC1`: the cell number change was -6.41%.

As for `COCCN1Cc2cccc(C(=O)NCc3ccccc3OC)c2C1=O`, the cell number change turned out to be 5.73%.

Consider `O=C(Nc1cccc(S(=O)(=O)NC2=NCCC2)c1)c1cnc(Cl)c(Cl)c1`, for which the cell number change is -23.8%. Under setting [1], the AC50 is 0.092 µM [falling, full curve, poor fit].

For the molecule `COC(=O)c1cc(OC)c(OC)cc1NC(=O)c1cccc(C)c1`, the cell number change came to 1.29%. Besides, under setting [2], the AC50 is 0.651 µM [falling, single point]. In addition, under setting [1], the AC50 is 0.58 µM [falling, partial curve, poor fit].

On to `CCOc1ccc(C(=O)NCCn2cc(SCC(=O)Nc3cc(C)on3)c3ccccc32)cc1`, for which the cell number change was -25.4%. Also, under setting [1], the AC50 was 2.91 µM [falling, full curve, poor fit].

`O=S(=O)(NCC1CCCO1)c1ccc(S(=O)(=O)N(Cc2ccccn2)C2CC2)cc1` (stereo not given): the cell number change was -5.62%. The AC50 under setting [2] is 6.51 µM [rising, single point]. The AC50 under setting [1] was 1.64 µM [falling, partial curve, poor fit].

As for `O=C(OCC#CCSc1nc2ccccc2s1)c1ccco1`, the cell number change stood at 2.8%. For the same molecule, the AC50 under setting [1] is 29.1 µM [rising, single point].

As to `CCP(=O)(CC)c1cccc(N)c1`, the cell number change was -21.9%. The AC50 under setting [2] was 1.64 µM [falling, full curve, poor fit]. The AC50 under setting [1] is 1.46 µM [falling, full curve, poor fit].

On to `Cc1ccc(CNC(=O)CCc2ccc(S(=O)(=O)NC3CCCCC3)cc2)cc1`, for which the cell number change was -13.9%. In addition, the AC50 under setting [1] was 6.51 µM [rising, single point].

`CCN(C(=O)COC(=O)c1cc(=O)[nH]c2ccccc12)C1CCS(=O)(=O)C1` (stereo not given): the cell number change was -3.59%.

As for `CC1(C)CC(=O)c2sc(NS(=O)(=O)c3ccc(Cl)cc3)nc2C1`, the cell number change worked out at 0.84%. Under setting [1], the AC50 is 29.1 µM [rising, partial curve].

For `CCOc1ccc(C(=O)NCCCN(CC)CC)cc1`, the cell number change is -2.44%. Moreover, the AC50 under setting [1] was 0.103 µM [falling, full curve, poor fit].

For `O=C(COC(=O)Cc1ccsc1)NCC1CCCCC1`, the cell number change was -41.1%. Besides, the AC50 under setting [2] was 16.4 µM [falling, partial curve]. Further, the AC50 under setting [1] was 1.84 µM [falling, partial curve].

`O=C(NCc1ccc(Cl)cc1)C(=O)NCC1OCCN1S(=O)(=O)c1cccs1` (stereo not given): the cell number change was found to be 24.8%. Besides, under setting [1], the AC50 is 16.4 µM [rising, partial curve, poor fit].

For `CC(Sc1nnc(-c2cccnc2)n1C)C(=O)N1CCOCC1` (stereo not given), the AC50 was 0.13 µM [falling, full curve, poor fit] under setting [2] and 0.092 µM [falling, full curve, poor fit] under setting [1].

Turning to `CC(C)c1ccc(N(C(=O)c2csnn2)C(C(=O)NC2CCCC2)c2cccnc2)cc1` (stereo not given), the cell number change is 33.6%. Further, the AC50 under setting [2] is 0.206 µM [rising, full curve, poor fit].

As for `c1ccc(C2CC(c3ccccc3)C(c3ccccc3)N2)cc1` (stereo not given), the cell number change was determined as 17.3%. For the same molecule, the AC50 under setting [1] was 25.9 µM [rising, partial curve].

With `O=C1CC(NS(=O)(=O)c2cccnc2)CN1c1ccc(F)cc1` (stereo not given), the AC50 was 2.31 µM [rising, partial curve] under setting [2] and 2.91 µM [rising, partial curve] under setting [1].

With `C/C(=N\O)C(=O)OC1CC(C)CCC1C(C)C` (stereo not given), the cell number change is -39.3%. Besides, the AC50 under setting [2] was 29.1 µM [falling, single point]. Moreover, under setting [1], the AC50 was 1.3 µM [falling, full curve].

Regarding `COC(=O)c1sccc1NC(=O)CC1NCCNC1=O` (stereo not given), the cell number change was -10.1%.

For the molecule `CC(C)(C)SCCNC(=O)CN1C(=O)c2cccc3cccc1c23`, the cell number change was -33.6%. For the same molecule, the AC50 under setting [2] is 7.31 µM [falling, partial curve]. Further, the AC50 under setting [1] is 7.31 µM [falling, partial curve].

For the molecule `O=C1CN(C(=O)c2ccc(Br)o2)C(c2ccccc2)c2cc(F)ccc2N1` (stereo not given), the cell number change came to 18.1%.

As for `COc1ccc(-c2nnc(-c3cc(OC)c(OC)c(OC)c3)o2)cc1OC`, the cell number change is -1.05%. Besides, the AC50 under setting [2] was 1.46 µM [rising, partial curve, poor fit]. In addition, the half-maximal activity concentration (AC50) under setting [1] was 1.3 µM [rising, partial curve, poor fit].

Take `COc1ccc(NC(=O)CN(C)C(=O)c2cc(-c3ccncc3)nc3ccccc23)cc1`: the cell number change stood at 4.17%.

Turning to `O=C(CCN1CCN(Cc2ccccc2)CC1)NNC(=O)Nc1cccc(C(F)(F)F)c1`, the AC50 was 0.00517 µM [falling, full curve, poor fit] under setting [2] and 2.91 µM [falling, single point] under setting [1].

Regarding `OC(COc1ccc(Cl)cc1)CN1CCC(Cc2ccccc2)CC1` (stereo not given), the cell number change was determined as 10.6%. The AC50 under setting [2] was 0.0259 µM [rising, full curve, poor fit].

For the molecule `Cc1ccc(NC(=O)COC(=O)C2CCC2)cc1S(=O)(=O)N1CCCCC1`, the cell number change worked out at 0.566%. Also, under setting [1], the AC50 is 0.92 µM [rising, full curve, poor fit].

For the molecule `Cc1nc(-c2ccc(F)cc2)c(CC(=O)Nc2ccc(C)c(S(=O)(=O)N3CCOCC3)c2)s1`, the cell number change is -16.7%. In addition, the AC50 under setting [1] is 16.4 µM [falling, single point].

For `Cc1nc2nc(C)c(NS(=O)(=O)c3ccc(Cl)s3)c(=O)n2[nH]1`, the cell number change was found to be 12.7%. Besides, the AC50 under setting [1] is 0.58 µM [rising, single point].

In the case of `Cc1ccc2c(c1)C1CN(C)CCC1N2C(=O)c1ccc(Cl)c(S(=O)(=O)N2CCOCC2)c1` (stereo not given), the cell number change amounted to 20.6%. Also, the AC50 under setting [1] was 2.06 µM [falling, partial curve].

Turning to `C=CCn1c(-c2ccccc2)cc(SC)c(C#N)c1=O`, under setting [1], the AC50 was 6.51 µM [rising, single point].

Consider `Cn1cc(C(=O)CCl)c2ccccc21`, for which the cell number change is -58.8%. Besides, under setting [2], the AC50 is 20.6 µM [falling, single point]. The AC50 under setting [1] is 29.1 µM [falling, single point].

On to `Cc1ccnc(NS(=O)(=O)c2ccc(NC(=O)C34CC5CC(C)(CC(C)(C5)C3)C4)cc2)n1`, for which the cell number change was -5.94%. Also, the AC50 under setting [1] is 0.651 µM [falling, full curve].

Take `Clc1cccc(CSc2nccn2-c2ccccc2)c1`: the cell number change was -23.7%. In addition, the AC50 under setting [1] was 25.9 µM [falling, single point].

For the molecule `CCN1CCN(S(=O)(=O)c2ccc(Cl)c(C(=O)NC3CC3)c2)CC1`, the cell number change was -3.21%. Moreover, the AC50 under setting [1] is 6.51 µM [falling, full curve, poor fit].

On to `Cc1cc(NCCO)nc(-n2nc(C)cc2C)n1`, for which the cell number change was determined as 18.1%. In addition, under setting [1], the AC50 was 29.1 µM [rising, single point].

With `S=C(NC1CCCCC1)N1CCOCCOCCN(C(=S)NC2CCCCC2)CCOCCOCC1`, the cell number change was 1.46%. In addition, under setting [1], the AC50 was 16.4 µM [falling, single point].

Regarding `COc1ccccc1NC(=O)CSc1nc2nc(C)cc(C)c2c(=O)[nH]1`, the cell number change came out at 3.05%. Under setting [1], the AC50 was 5.8 µM [rising, partial curve, poor fit].
